Test results published in publication PMC9700808.
These are yes or no findings as the source states them, for the method shown. In cells and extracts the contact can be indirect. Some binding calls cover weakened binding; strength is not graded here.

Biological target: PARP1 (poly-ADP-ribose polymerase 1), endogenous (human (endogenous in HEK293T, HCT116, HeLa)), P09874
Assay: co-IP; endogenous proteins; 200 µg total extract of HCT116 cells cross-linked with 1% formaldehyde for 10 min; anti-PARP1 or anti-SET8 antibody, rabbit IgG as control; overnight at 4 °C in TD buffer (50 mM HEPES pH 7.5, 250 mM NaCl, 1% Triton X-100); protein G magnetic beads
Settings: remark: other sources report otherwise

binding: binds
B1: SET8, endogenous, Q9NQR1 1-393 (protein)
chain: MGEGGAAAALVAAAAAAAAAAAAVVAGQRRRRLGRRARCHGPGRAAGGKMSKPCAVEAAAAAVAATAPGPEMVERRGPGRPRTDGENVFTGQSKIYSYMSPNKCSGMRFPLQEENSVTHHEVKCQGKPLAGIYRKREEKRNAGNAVRSAMKSEEQKIKDARKGPLVPFPNQKSEAAEPPKTPPSSCDSTNAAIAKQALKKPIKGKQAPRKKAQGKTQQNRKLTDFYPVRRSSRKSKAELQSEERKRIDELIESGKEEGMKIDLIDGKGRGVIATKQFSRGDFVVEYHGDLIEITDAKKREALYAQDPSTGCYMYYFQYLSKTYCVDATRETNRLGRLINHSKCGNCQTKLHDIDGVPHLILIASRDIAAGEELLYDYGDRSKASIEAHPWLKH
